Here are results for 108 sequences from PubChem BioAssay AID1347426 (Functional Genomics Laboratory (NCATS/FGL), 2020).

Hit rate of the full screen: of about 31,000 sequences, about 1,400 (4.5%) were called active.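 Rule for the calls: active = median seed-adjusted z-score above 1 or below -1; inactive = the rest.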 Some of the results follow.

The nature of the test: Novel Modifiers of Survival Motor Neuron (SMN) Protein: Gene Identification via Genome-wide siRNA Screen.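 Note: luminescence tracks full-length SMN protein made from the SMN2 reporter.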 The note with it: HEK293T SMN2-luciferase reporter, siRNA knockdown, 72 h; actives lie on both sides. The essentials:
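Steps: spot 1 pmol siRNA, add Lipofectamine RNAiMax in serum-free DMEM, seed HEK293T SMN2–luciferase reporter cells; incubate 72 h at 37 °C; add ONE-Glo; normalize luminescence to control siRNA, log10, MAD. Candidates: |MAD| > 1.0.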
(Reporter assays use an easily measured gene product as a stand-in for the process of interest.)
In the case of GCAGCUCGACUCUCACGUATT against SNAPIN, the median seed-adjusted z-score was inactive: -0.132.
Turning to GCUACGACCCAAAUCGAUATT against GNL1, the median seed-adjusted z-score was inactive: 0.154.
In the case of CAGUAUAGGCUUCUAGUAATT against MTIF2 it was inactive: 0.236.
In the case of CGUGAACUGUAACAGCAUUTT against PGC it was inactive: 0.884.
The result for GGAGCAUCACAGAUGUAUATT against CCR8 reads inactive: -0.206; that for GCAAUGCCCUUUUCACCGATT against SERPINA5, active: -1.01; that for CGAACGACAUGUUCUUGUUTT against CST7, inactive: 0.303.
As for GCAUCAACCUCCAAAUCGATT against SFRS2B, the median seed-adjusted z-score is inactive: -0.272.
In the case of GGAAGAGUUGGACACCUUATT against ANGPT1 it was inactive: 0.289.
The result for GCCUGCCUUUUGUCCUUGUTT against HTR6 reads inactive: -0.463; that for CGGAAUAAUUCCAUCCAAATT against STX16, inactive: -0.569; that for AGACCGUCAUGCACAAGGATT against PIP5K1C, inactive: -0.13.
The result for AGGCUGCAGUGGACAGUUUTT against ZBTB16 reads inactive: 0.431; that for GGAAGUUCUUCUAUGUGAATT against ZNF25, inactive: -0.145.
On to CCAGGUUGAUAACACUGAUTT against LAP3, for which the median seed-adjusted z-score is inactive: 0.0175.
In the case of GGAACUCUAUGGGAACAAUTT against BCL2L1 it was inactive: 0.0801.
On to GAAAUACUGCGGUAUAAAATT against SYTL2, for which the median seed-adjusted z-score is inactive: 0.211.
For the sequence GCUAGUCAAGGUUCCUAAATT against GTF2F2, the median seed-adjusted z-score is active: -1.14.
The result for CCCAGAAUGUGCUAAGGUUTT against USP4 reads inactive: -0.0365; that for GUCUAACUGGAAAACCCAATT against CASP3, inactive: -0.874.
With CAAGAGCACCGGUAAGGAATT against HSPA2, the median seed-adjusted z-score is inactive: -0.0343.
The result for CAAAACUUCUGUGAAAACUTT against ZNF322A reads inactive: 0.0884; that for GGAAUUACUCAUAUGCUAATT against TLR7, inactive: 0.189; that for GGAUUUCUACCUUUCCAUATT against CRTAP, inactive: 0.581.
In the case of UGCUUGGCGACUUCAGUAATT against AKR1C2 it was inactive: -0.109; in that of GUACAUCGGAGAUUGACAATT against CRTAM, inactive: 0.346.
In the case of GUUCCGUAGUAAGAUGGAATT against GCAT it was inactive: 0.672; in that of GGAGUUCCAAUGGAAGUUATT against PSMD14, inactive: 0.375; in that of GGAGCUAGACGAGAAUGGATT against S100A1, inactive: 0.
With ACCGCUCACUGCUUAGAAATT against NHLH1, the median seed-adjusted z-score was inactive: -0.0084.
The result for CCUGACUUGCUUUGACCAATT against RGS8 reads inactive: 0.739.
In the case of GCAUGAACGGAAUAUCUCUTT against ULK3 it was inactive: -0.73.
In the case of GAACUCCAGUGGGCAAAUUTT against CDC25C it was inactive: 0.256.
With ACCUGACAAGAGACAUAUATT against RAB39B, the median seed-adjusted z-score is inactive: 0.485.
The result for GCUUGAAGAGUUUGGCUGGTT against DUSP15 reads inactive: 0; that for GCACGAUAUAUAUAGCUAUTT against RIPK2, inactive: 0.176.
In the case of GGGCAUCGAACAUCACAAUTT against PLXNC1 it was inactive: -0.0792.
The result for GGAUCAGUUCUACAGUGAATT against UGT2B4 reads inactive: 0.0707.
As for GCUUGUCAGGUAGAUAUAATT against PCGF6, the median seed-adjusted z-score was inactive: 0.536.
With GAACAACCGAUCAAGACCATT against FAM47B, the median seed-adjusted z-score was inactive: -0.0631.
In the case of GGUCACGGAUUGCUUUUUATT against DUS1L it was inactive: 0.0698; in that of GGAGCAACUUGGUAGUAUATT against MYO3A, inactive: 0.0776; in that of CCACUGAGGAGAUAAGCAATT against ATAD3B, inactive: -0.624.
The result for GCUUUACCUUGGACCUGAATT against MPL reads inactive: -0.0153; that for GGUGUGAACUACUUCAGCATT against MSN, inactive: -0.736; that for GGAAGAACUUUCUCGGUAATT against TIMP2, inactive: 0.0444.
In the case of AAUCAUCGCUACAAGCUGATT against NKX2-8, the median seed-adjusted z-score was inactive: 0.104.
In the case of GGAGGACAUUUGUAUCCUUTT against NNT it was inactive: 0.336; in that of ACAAGGUGAUCAAACCUAATT against GFRA2, inactive: 0.363; in that of CUACUGCUGGAGAAUCAAATT against GPR45, inactive: 0.0287.
The result for CAAUUUCAGCAGGCCCAAATT against RNF148 reads inactive: 0.552; that for CUAUCUCCCUGAUCCAGCATT against TRPM2, inactive: 0.226; that for GACUUGGAGUUUCAGGCAATT against XPC, inactive: -0.564.
As for CGGAAGGACAGACAAGUAATT against SIGLEC9, the median seed-adjusted z-score is inactive: 0.
Take GGAAGUAUUUGUCUCGAUATT against UBE2D1: the median seed-adjusted z-score was inactive: 0.508.
The result for ACAACGAAGUUCUACAGAATT against PKIA reads inactive: 0.533; that for ACUCCAUGAUCAACCCUAUTT against GPR3, inactive: 0; that for CUACAUCCACAUCAAGAUATT against DNAJA3, inactive: -0.0333.
In the case of CCCAAAGAGUGAACAGGUATT against ZNF232 it was inactive: 0.39; in that of CCAAGAUCCUCUUCAAAGATT against PLCH2, inactive: 0.593.
Consider GACUCAACCUAGACGUGCATT against INHBB, for which the median seed-adjusted z-score was inactive: -0.522.
In the case of GCAUCUGCUGUAUCGAUGATT against MCM4 it was inactive: 0.0057.
Regarding GCUUUAUGACAGAACCGAATT against OPA1, the median seed-adjusted z-score is inactive: -0.182.
In the case of UAACCGAUUUGAUAUGAAUTT against ANKRA2 it was active: 1.26.
The result for CCGACUCAGUAACCCUGAATT against UTP6 reads inactive: -0.253; that for CGAGAUACGUUACGACGGATT against TFAP2D, inactive: 0.
The result for CCGGAAAGCUUUCCAAGUATT against MMP12 reads inactive: 0.0476; that for CGACCUAAUCAUUCACAGUTT against CYP26C1, inactive: -0.276; that for CCAGCAUACUUACUUAUCUTT against ZNF420, inactive: -0.5.
Regarding GCAUUUUACGAAUUCACCUTT against LATS2, the median seed-adjusted z-score is inactive: -0.245.
The result for AGAUGAAUUAUGGAGGAUUTT against TCEB3C reads inactive: 0.382; that for CUACAUUCCGUGUUCAUAATT against ZNF552, inactive: 0.437; that for CAAGUGGAAUUGAUGCGAATT against PRC1, inactive: -0.0195.
The result for AAUUCGAGCUGGUGCCAUCTT against MYCL1 reads inactive: 0.0658; that for GGUCUACUGCACUCGGGAATT against SPINK6, inactive: 0.275.
Turning to CAGCUACGGAAGAACCUGATT against PHF21A, the median seed-adjusted z-score was inactive: 0.179.
The result for AGAGAAGACCCAACAGUGATT against MEF2B reads inactive: 0.263.
For the sequence GGUAUUACUUUGCAAUCGATT against CACNA2D1, the median seed-adjusted z-score was inactive: -0.541.
For the sequence GGAAAACGACCAAAACGAATT against BBX, the median seed-adjusted z-score was inactive: -0.0824.
The result for CCAACCAACAGAUCCUUAATT against RAI1 reads inactive: 0.113; that for GGACAGAAGUGCAACUGGATT against CGREF1, inactive: 0.0743.
In the case of GACAUUAAAGUAUCAGUAATT against PDHX it was inactive: 0.21; in that of GCCGUGACAUGAUAGGCAUTT against DDX41, inactive: -0.611.
The result for GUAAGUCCCUUUAUUCACATT against GFRA4 reads active: -1.59; that for CGCGGUUUAUCGAGGAUAATT against SALL3, inactive: -0.133; that for AGCUGGUUCACGACAUGAATT against TRIP6, active: 1.03.
For the sequence GGACUAUCUGGAGAUGUUUTT against RNF112, the median seed-adjusted z-score was inactive: -0.42.
GGGUGGUAUUUCCAACAUUTT against CCT4: the median seed-adjusted z-score was inactive: -0.413.
The result for GACCUUCCCUACGAUUAUATT against HLCS reads inactive: 0.0646; that for CCAUGACUCCUGACUACCATT against KRT32, inactive: -0.000598.
In the case of GGAGUCUUUUGAAACGGAUTT against SHPRH it was inactive: 0.169.
The result for CAAGCAAGAUAAUUAUAAUTT against ASCC3 reads inactive: -0.192; that for GACCUUCAGUCAUACAUCATT against ZNF525, inactive: 0.134; that for GCAUGUUAAUGGGUUUAAUTT against GNAS, inactive: -0.531.
With GGCUGAAAACGGAGCACAATT against PCDHB16, the median seed-adjusted z-score is inactive: -0.523.
The result for GUCUGGUUGUACUAGCAAATT against ACAT1 reads inactive: -0.848.
In the case of GCUUUUAACCAUUCUGCAATT against ZNF93 it was inactive: 0.502.
Consider GGUUUAUAAUUCCGAAAAATT against AGA, for which the median seed-adjusted z-score is inactive: -0.0433.
In the case of GGAGAAAACAGUAAAGGCATT against SRY it was inactive: -0.949.
The result for ACGGCUCUGUGGACACAGATT against GPR78 reads inactive: 0.607; that for GUGUGAUUCUUGGAGCAAATT against PLD2, inactive: -0.743.
As for GACUAUUACCAAACCAUGUTT against LEPRE1, the median seed-adjusted z-score was inactive: 0.121.
In the case of CCACCAACCGGAAGCUGAATT against POR it was inactive: 0.189.
The result for GCAGGAGUUUGUUUAAUGATT against UGT1A10 reads inactive: 0.286; that for GAACUGCCCUUGGUUGAGATT against AP4E1, inactive: 0.
In the case of GGUAGACUGUCAUCGUGAATT against RAD50 it was inactive: 0.266; in that of AGAAAGUUCAUAAAUACAATT against RASSF3, inactive: -0.323.
With CUAGGACUAUUAUCCAGGATT against SLC26A8, the median seed-adjusted z-score is inactive: -0.145.
